{"source": "PubChem BioAssay AID504793 (Drosophila RNAi Screening Center, 2011)", "test": "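Whole-genome screen for parts of the DNA damage checkpoint at G2/M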 (primary screen)", "system": "Drosophila S2R+ cells", "knock-down reagent": "long dsRNA against Drosophila genes, about 0.25 µg dsRNA per well", "time to read-out": "4 days of dsRNA, then 4 hours of drug before read-out", "conditions": "doxorubicin 0.5 µM for 4 hours to cause double-strand breaks, in cells also given a low, harmless dose of dsRNA against nbs to sensitise the assay", "read-out": "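Per-well count of mitotic cells stained for phospho-histone H3 after doxorubicin exposure, used as mitotic index; counts are raw and not normalised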", "reading the numbers": "mitotic cells: higher = more cells in mitosis, weaker G2 arrest", "hit rule": "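a call needs confirmation in secondary tests, with other dsRNAs and a check of mitotic timing without damage, not just a high primary count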", "meaning of the calls": "active = confirmed in follow-up tests; inactive = not confirmed", "note": "The deposit covers about 23,000 reagents; shown is an unselected part of those with a known target gene and a result. Over the whole deposit, 62 (0.27%) got an active call. 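Calls come from follow-up tests whose scores are not deposited, so confirmed genes may have low counts here; counts are not normalised per plate.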 Raw values vary from plate to plate and are shown uncorrected. Entries without a mark were called inactive."}
{"gene": "CG34166", "dsRNA": "DRSC02482", "mitotic cells, replicate 1": 3}
{"gene": "CG34166", "dsRNA": "DRSC27934", "mitotic cells, replicate 1": 6}
{"gene": "CG6403", "dsRNA": "DRSC16033", "mitotic cells, replicate 1": 14}
{"gene": "CG12605", "dsRNA": "DRSC08286", "mitotic cells, replicate 1": 6}
{"gene": "CG12605", "dsRNA": "DRSC28756", "mitotic cells, replicate 1": 8}
{"gene": "CG17917", "dsRNA": "DRSC12570", "mitotic cells, replicate 1": 6}
{"gene": "CSN7", "dsRNA": "DRSC06807", "mitotic cells, replicate 1": 17}
{"gene": "CSN7", "dsRNA": "DRSC06808", "mitotic cells, replicate 1": 7}
{"gene": "dila", "dsRNA": "DRSC06607", "mitotic cells, replicate 1": 3}
{"gene": "dila", "dsRNA": "DRSC26509", "mitotic cells, replicate 1": 3}
{"gene": "shop", "dsRNA": "DRSC20030", "mitotic cells, replicate 1": 9}
{"gene": "shop", "dsRNA": "DRSC26764", "mitotic cells, replicate 1": 3}
{"gene": "CG5139", "dsRNA": "DRSC00681", "mitotic cells, replicate 1": 3}
{"gene": "CG5139", "dsRNA": "DRSC26541", "mitotic cells, replicate 1": 8}
{"gene": "CG18249", "dsRNA": "DRSC15318", "mitotic cells, replicate 1": 7}
{"gene": "Nf-YA", "dsRNA": "DRSC23126", "mitotic cells, replicate 1": 14}
{"gene": "CG11629", "dsRNA": "DRSC03695", "mitotic cells, replicate 1": 14}
{"gene": "CG13784", "dsRNA": "DRSC00974", "mitotic cells, replicate 1": 6}
{"gene": "Tctp", "dsRNA": "DRSC15649", "mitotic cells, replicate 1": 7}
{"gene": "Tctp", "dsRNA": "DRSC29100", "mitotic cells, replicate 1": 6}
{"gene": "NimC2", "dsRNA": "DRSC01881", "mitotic cells, replicate 1": 2}
{"gene": "mip130", "dsRNA": "DRSC18575", "mitotic cells, replicate 1": 15}
{"gene": "mip130", "dsRNA": "DRSC26990", "mitotic cells, replicate 1": 19}
